The text below walks through data of patent US20080081075A1, “Multifunctional mixed micelle of graft and block copolymers and preparation thereof” (National Tsing Hua University, priority 2006, published 2008).

Structures are written as SMILES.

The subject of the assay is HeLa cells. Briefly: Cytotoxicity evaluation, MTT assay. Type of assay: cell-based. To be noted: 72 h incubation.

In the case of `COc1cccc2c1C(=O)c1c(O)c3c(c(O)c1C2=O)C[C@@](O)(C(=O)CO)C[C@@H]3O[C@H]1C[C@H](N)[C@H](O)[C@H](C)O1` [free Dox, doxorubicin], the “inhibition concentration (IC50)” value was 1.2 µg/mL.
